Data taken from article doi:10.1101/2023.10.18.561931.
No constants are given. Whether binding was seen depends on the method and setting.

Target: E. coli CpxA sensor domain corresponding to residues 31-163 (E. coli) (UniProt P0AE82)
Experiment: crystal structure

binding: no binding
B1: E. coli CpxA sensor domain corresponding to residues 31-163 (domain or fragment, UniProt P0AE82 31-163)
chain: DSRQMTELLDSEQRQGLMIEQHVEAELANDPPNDLMWWRRLFRAIDKWAPPGQRLLLVTTEGRVIGAERSEMQIIRNFIGQADNADHPQKKKYGRVELVGPFSVRDGEDNYQLYLIRPASSSQSDFINLLFDR
